Experimental data: PMC7522513
No constants are given. Whether binding was seen depends on the method and setting. Binding seen in cells or lysates may run through a third protein. Some results given as binding are weak or reduced against the parent protein; the word gives no strength.

By UniProt entry, the sequences of proteins in these tests, tags left out.
UniProt O88763: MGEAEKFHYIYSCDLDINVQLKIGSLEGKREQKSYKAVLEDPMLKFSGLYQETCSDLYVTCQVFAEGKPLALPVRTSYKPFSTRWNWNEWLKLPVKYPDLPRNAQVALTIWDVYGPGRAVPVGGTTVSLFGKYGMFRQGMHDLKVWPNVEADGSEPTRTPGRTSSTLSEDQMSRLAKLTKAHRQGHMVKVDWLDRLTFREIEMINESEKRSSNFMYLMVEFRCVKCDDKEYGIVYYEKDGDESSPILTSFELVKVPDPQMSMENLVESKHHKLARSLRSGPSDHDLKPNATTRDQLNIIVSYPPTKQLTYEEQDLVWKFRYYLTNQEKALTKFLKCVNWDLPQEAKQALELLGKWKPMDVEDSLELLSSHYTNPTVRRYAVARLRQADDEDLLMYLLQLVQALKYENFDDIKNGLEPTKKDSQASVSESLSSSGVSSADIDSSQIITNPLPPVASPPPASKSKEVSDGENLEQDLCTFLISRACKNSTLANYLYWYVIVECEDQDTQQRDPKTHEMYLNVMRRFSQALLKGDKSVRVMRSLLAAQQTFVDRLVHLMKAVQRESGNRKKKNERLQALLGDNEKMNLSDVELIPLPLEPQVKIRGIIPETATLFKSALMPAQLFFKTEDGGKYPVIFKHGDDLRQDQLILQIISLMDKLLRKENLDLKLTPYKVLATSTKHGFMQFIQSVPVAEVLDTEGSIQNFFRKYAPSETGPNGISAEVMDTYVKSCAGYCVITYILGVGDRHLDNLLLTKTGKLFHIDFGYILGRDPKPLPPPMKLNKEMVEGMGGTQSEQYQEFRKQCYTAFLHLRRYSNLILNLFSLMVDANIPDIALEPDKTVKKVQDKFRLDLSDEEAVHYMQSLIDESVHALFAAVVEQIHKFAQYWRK
UniProt D4A4K3: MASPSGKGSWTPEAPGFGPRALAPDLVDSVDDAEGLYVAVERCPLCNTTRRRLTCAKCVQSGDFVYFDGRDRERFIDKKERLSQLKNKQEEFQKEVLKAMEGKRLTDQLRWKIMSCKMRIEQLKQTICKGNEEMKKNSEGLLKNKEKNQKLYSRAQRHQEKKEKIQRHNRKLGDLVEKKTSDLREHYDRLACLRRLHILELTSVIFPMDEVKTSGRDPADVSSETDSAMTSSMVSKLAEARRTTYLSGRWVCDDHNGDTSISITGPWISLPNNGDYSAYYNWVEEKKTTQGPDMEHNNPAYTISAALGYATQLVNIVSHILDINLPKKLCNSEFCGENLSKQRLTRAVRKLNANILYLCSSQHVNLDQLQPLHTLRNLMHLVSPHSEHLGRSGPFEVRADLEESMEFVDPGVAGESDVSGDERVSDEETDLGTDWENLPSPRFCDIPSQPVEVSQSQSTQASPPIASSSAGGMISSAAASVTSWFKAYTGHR
UniProt Q91XJ1: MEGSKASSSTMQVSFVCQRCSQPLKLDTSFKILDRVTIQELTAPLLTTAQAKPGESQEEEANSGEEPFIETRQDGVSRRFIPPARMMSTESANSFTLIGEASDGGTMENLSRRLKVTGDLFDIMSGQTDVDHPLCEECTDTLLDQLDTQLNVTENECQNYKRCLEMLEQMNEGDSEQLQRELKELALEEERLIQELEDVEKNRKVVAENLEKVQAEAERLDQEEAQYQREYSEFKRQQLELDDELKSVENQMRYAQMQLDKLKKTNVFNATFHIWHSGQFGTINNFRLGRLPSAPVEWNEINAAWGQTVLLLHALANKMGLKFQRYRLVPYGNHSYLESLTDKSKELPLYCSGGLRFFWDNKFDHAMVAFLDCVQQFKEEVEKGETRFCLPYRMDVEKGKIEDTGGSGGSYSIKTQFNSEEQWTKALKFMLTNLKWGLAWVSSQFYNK
UniProt P0C0R5: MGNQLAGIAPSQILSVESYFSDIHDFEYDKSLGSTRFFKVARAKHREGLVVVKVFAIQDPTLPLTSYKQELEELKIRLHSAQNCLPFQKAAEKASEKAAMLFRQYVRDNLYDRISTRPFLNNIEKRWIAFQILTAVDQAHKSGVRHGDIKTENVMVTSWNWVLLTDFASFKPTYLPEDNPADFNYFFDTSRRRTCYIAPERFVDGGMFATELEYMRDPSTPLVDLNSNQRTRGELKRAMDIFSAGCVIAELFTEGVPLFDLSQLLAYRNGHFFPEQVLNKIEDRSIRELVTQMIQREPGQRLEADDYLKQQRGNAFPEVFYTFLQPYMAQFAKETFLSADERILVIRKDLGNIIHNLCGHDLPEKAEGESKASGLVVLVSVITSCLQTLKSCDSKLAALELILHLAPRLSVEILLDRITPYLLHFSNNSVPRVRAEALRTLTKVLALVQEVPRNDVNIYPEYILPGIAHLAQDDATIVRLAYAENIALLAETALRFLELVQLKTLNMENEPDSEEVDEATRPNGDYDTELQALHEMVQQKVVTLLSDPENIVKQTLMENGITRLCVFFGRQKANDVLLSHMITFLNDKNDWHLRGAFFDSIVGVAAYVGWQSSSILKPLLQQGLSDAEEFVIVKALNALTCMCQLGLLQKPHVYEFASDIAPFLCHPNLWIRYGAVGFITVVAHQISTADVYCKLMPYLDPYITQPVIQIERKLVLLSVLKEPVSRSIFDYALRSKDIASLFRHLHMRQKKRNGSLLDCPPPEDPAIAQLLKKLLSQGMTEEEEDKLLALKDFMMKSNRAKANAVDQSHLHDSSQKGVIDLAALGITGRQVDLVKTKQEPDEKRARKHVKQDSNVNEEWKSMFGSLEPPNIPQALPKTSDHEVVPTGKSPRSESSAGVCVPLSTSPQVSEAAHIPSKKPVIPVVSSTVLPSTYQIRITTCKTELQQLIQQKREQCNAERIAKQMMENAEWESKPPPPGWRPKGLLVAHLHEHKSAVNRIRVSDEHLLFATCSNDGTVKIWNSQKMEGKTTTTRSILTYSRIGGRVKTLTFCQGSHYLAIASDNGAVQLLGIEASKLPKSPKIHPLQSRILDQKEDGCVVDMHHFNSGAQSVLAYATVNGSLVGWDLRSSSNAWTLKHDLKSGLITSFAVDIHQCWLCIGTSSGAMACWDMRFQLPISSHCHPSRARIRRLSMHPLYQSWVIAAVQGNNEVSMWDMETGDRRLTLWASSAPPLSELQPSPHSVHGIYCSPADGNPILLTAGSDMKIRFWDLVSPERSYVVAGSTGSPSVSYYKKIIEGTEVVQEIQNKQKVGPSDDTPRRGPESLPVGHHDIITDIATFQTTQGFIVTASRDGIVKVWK

Biological target: Vps34 (rat (endogenous in neonatal rat cardiomyocytes)) (UniProt O88763)
Assay: co-IP; endogenous Vps34 immunoprecipitated with a Vps34 antibody from NRCM lysates, immunoblot for Beclin1, Vps15, ATG14 and UVRAG; cells transfected with Adv-Ubc9 for 48 h, then hypoxic condition (OGD) for 6 h

binding | Substance
binds | ATG14 (from UniProt D4A4K3 1-492)
binds | Beclin1 (from UniProt Q91XJ1 1-448)
binds | Vps15 (from UniProt P0C0R5 1-1358)
